Laboratory results reported in patent US20110230478A1 (Bayer ScienceCrop AG, priority 2008, published 2011).
Some of these results come from one statement about several compounds together.

Assays:
Assay type in all cases: in vivo
[1] = test system: Alternaria solani; test: Alternaria test (tomato)/protective; conditions: tomato plants, protective, active compound concentration 500 ppm, evaluation 7 days after inoculation
[2] = test system: Pyrenophora teres; test: Pyrenophora teres test (barley)/protective; conditions: barley plants, protective, active compound concentration 500 ppm, evaluation 7-9 days after inoculation
[3] = test system: Venturia inaequalis; test: Venturia test (apple)/protective; conditions: apple plants, protective, active compound concentration 100 ppm, evaluation 10 days after inoculation
[4] = test system: Fusarium nivale (var. majus); test: Fusarium nivale (var. majus) test (wheat)/protective; conditions: wheat plants, protective, active compound concentration 1000 ppm, evaluation 5 days after inoculation

Compound | efficacy [1] [%] | efficacy [2] [%] | efficacy [3] [%] | efficacy [4] [%]
CCOc1cccc(Nc2ncc(Cl)c(NC(C)COC)n2)c1 (stereo not shown) [Example 96] | ≥ 70 | ≥ 70 | ≥ 70 | ≥ 70
COCC(C)Nc1nc(Nc2ccccc2)ncc1C(F)(F)F (stereo not shown) [Example 25] | – | ≥ 70 | ≥ 70 | ≥ 70
COCC(C)Nc1nc(Nc2ccc(F)cc2)ncc1Br (stereo not shown) [Example 70] | – | ≥ 70 | – | ≥ 70
COCC(C)Nc1nc(Nc2ccc(NC(C)=O)c(OC)c2)ncc1Br (racemic) [Example 125] | ≥ 70 | ≥ 70 | – | ≥ 70
COCC(C)Nc1nc(Nc2ccc(OC)cc2)ncc1Br (stereo not shown) [Example 110] | ≥ 70 | ≥ 70 | – | ≥ 70
CCOC(=O)Nc1cccc(Nc2ncc(Br)c(NC(C)COC)n2)c1 (racemic) [Example 129] | ≥ 70 | ≥ 70 | – | ≥ 70
COCC(C)Nc1nc(Nc2ccc(OC)c(OC)c2)ncc1Cl (stereo not shown) [Example 84] | – | ≥ 70 | ≥ 70 | ≥ 70
COCC(C)Nc1nc(Nc2ccc(F)cc2)ncc1Cl (stereo not shown) [Example 69] | – | ≥ 70 | – | ≥ 70
CNC(=O)c1ccc(Nc2ncc(Cl)c(NC(C)COC)n2)cc1 (racemic) [Example 135] | ≥ 70 | ≥ 70 | ≥ 70 | ≥ 70
CSc1cccc(Nc2ncc(Cl)c(NC3CCCC3)n2)c1 [Example 256] | – | ≥ 70 | – | ≥ 70
COCC(C)Nc1nc(Nc2ccc(OC)nc2)ncc1Br (stereo not shown) [II-1] | – | ≥ 70 | – | ≥ 70
